Laboratory results: article PMC11239674
For some assays here: Negatives hold for the conditions tested. Where a protein sequence is shown, tags need not be part of it.

Columns and labels:
[1] = target: T1, AtGRP7short (Arabidopsis thaliana) (UniProt Q03250); experiment: MST; conditions: 25 mM Tris-HCl pH 8.0, 150 mM NaCl (150 mM LiCl for Sc1 LiCl), 1 mM DTT, 0.1 mg/ml BSA, 20 nM Cy5-RNA, about 2 min incubation, temperature not stated, recombinant protein, residues 1-87, protein details: N-terminal 6xHis, thrombin site, His removed, label: Cy5-UTP
T1 sequence (looked up): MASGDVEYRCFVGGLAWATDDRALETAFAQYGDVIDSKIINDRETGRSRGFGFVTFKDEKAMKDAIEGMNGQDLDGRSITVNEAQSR

[2] = target: T2, AtGRP7YtoE Y103E,Y111E,Y118E,Y131E,Y138E,Y148E,Y159E,Y167E (Arabidopsis thaliana) (UniProt Q03250); experiment: MST; conditions: 25 mM Tris-HCl pH 8.0, 150 mM NaCl (150 mM LiCl for Sc1 LiCl), 1 mM DTT, 0.1 mg/ml BSA; 20 nM Cy5-RNA; about 2 min incubation; temperature not stated; recombinant protein; residues 1-176; protein details: N-terminal 6xHis, thrombin site, His removed; label: Cy5-UTP
T2 sequence (looked up): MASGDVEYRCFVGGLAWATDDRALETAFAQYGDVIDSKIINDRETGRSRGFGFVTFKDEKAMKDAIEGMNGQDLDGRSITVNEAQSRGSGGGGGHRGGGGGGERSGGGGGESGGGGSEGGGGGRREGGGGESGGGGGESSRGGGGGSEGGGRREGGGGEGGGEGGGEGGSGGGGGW

| Sequence | binding result [1] | further results |
| --- | --- | --- |
| AUGGGAAAUCGUUGUGCUAGAACUCCUUGUUGUACAAAGUUGUGGUCAUGUAUAUGCUGCUGCUGCUGCAGCAACAACAAAGCUCGAGCAAGAAGCCAACACGGGUCUAAAGGGAAUGUCUAUUCGAUAAACAGAAUUGAGAAAUGGGAAGAAAAGAUAACAGAAGCUAACAACAAUGGCAAGAUUCUGGUGGUGUAUUUCAGCGCGCCGUGGUGUGUACCUUGUAAAAAGAUAGAACCAGUAUUCAGAGAACUUGCUUCUAGAUACCCUUCAAUGAUUUUUGUAACCAUUGAUGUGGAAGAACUCGCUGAGUUUAGUGAUGAAUGGAAUGUGGAAGCUACACCAACUAUAGUGUUUCUUAAAGAUGGGAGACAAAUGGAUAAGCUUGUUGGUGCUGAAACCUCAGAGCUUCAGAAGAAAACAGCUGCAGCUGCUGAACUCUUACUCAGAAAACCAUAA [BnaCNNG53670D] |  | binding result ([1]; flanks not given): no binding |
| GGAUGGCGUCCGGUGAUGUUGAGUAUCGGUGCUUCGUUGGAGGUCUAGCAUGGGCCACUGAUGACAGAGCUCUUGAGACUGCCUUCGCUCAAUACGGCGACGUUAUUGAUUCCAAGAUCAUUAACGAUCGUGAGACUGGAAGAUCAAGGGGAUUCGGAUUCGUCACCUUCAAGGAUGAGAAAGCCAUGAAGGAUGCGAUUGAGGGAAUGAACGGACAAGAUCUCGAUGGCCGUAGCAUCACUGUUAACGAGGCUCAGUCACGAGGAAGCGGUGGCGGCGGAGGCCACCGUGGAGGUGGUGGCGGUGGAUACCGCAGCGGCGGUGGUGGAGGUUACUCCGGUGGAGGUGGUAGCUACGGAGGUGGCGGCGGUAGACGCGAGGGUGGAGGAGGAUACAGCGGCGGCGGCGGCGGUUACUCCUCAAGAGGUGGUGGUGGCGGAAGCUACGGUGGUGGAAGACGUGAGGGAGGAGGAGGAUACGGUGGUGGUGAAGGAGGAGGUUACGGAGGAAGCGGUGGUGGUGGAGGAUGGUAA [AtGRP7] | no binding |  |
| GGAUGGCGAUGUCUUUCUCAGGAGCUGUUCUCACUGGUAUGGCUUCUUCUUUCCACAGCGGAGCCAAGCAGAGCAGCUUCGGCGCUGUCAGAGUCGGCCAGAAAACUCAGUUCGUCGUCGUUUCUCAACGCAAGAAGUCGUUGAUCUACGCCGCUAAAGGUGACGGCAACAUCCUCGAUGACCUCAACGAGGCCACAAAGAAAGCUUCAGAUUUCGUGACGGAUAAAACAAAAGAGGCAUUAGCAGAUGGUGAGAAAGCGAAAGACUACGUUGUUGAAAAAAACAGUGAAACCGCAGAUACAUUGGGUAAAGAAGCUGAGAAAGCUGCGGCGUAUGUGGAGGAGAAAGGAAAAGAAGCCGCAAACAAGGCGGCAGAGUUCGCGGAGGGUAAAGCAGGAGAGGCUAAGGAUGCCACAAAGUAG [AtCOR15A] |  | Kd [2]: 27.9 µM |
| GGAUGGCGUCCCCUGAUGUUGAGUACCGGUGCUUCGUUGGAGGUCUAGCUUGGGCCACCGACGACAGAGCUCUCGAGACCGCCUUCUCCCAGUUCGGCGACGUUCUCGAUUCCAAGAUCAUUAACGAUCGUGAGACGGGACGAUCAAGGGGAUUCGGAUUCGUCACCUUCAAGGAUGAGAAGUCGAUGAAGGACGCCAUCGAGGGGAUGAACGGACAGGAUCUCGACGGUCGCAGCAUCACUGUUAACGAGGCUCAGUCUCGUGGAAGCGGUGGUGGCGGAGGAGGCCGCGGCGGAGGCGGUGGUGGAUACCGCAGCGGAGGCGGUGGUGGUUACGGAGGAGGCGGUGGUGGAUACGGUGGAGGUGGUGGAAGACGCGAGGGUGGUUACAGUGGUGGCGGUGGAGGUGGUUACUCGUCGAGAGGAGGUGGUGGCGGUGGAGGUUACGGUGGCAGGCGUGAUGGUGGUGAAGGUGGAGGUUACGGAGGAAGCGGUGGUGGUGGUUGGUAA [BnGRP7] | no binding |  |
| GGCAUCACACCUUCCCUCUCUUCACUGUAAACCUACUACAUCUCCCCCUCUCUCUCAUUUCAAUGGCGUCCCCUGAUGUUGAGUACCGGUGCUUCGUUGGAGGUCUAGCUUGGGCCACCGACGACAGAGCUCUCGAGACCGCCUUCUCCCAGUUCGGCGACGUUCUCGAUUCCAAGAUCAUUAACGAUCGUGAGACGGGACGAUCAAGGGGAUUCGGAUUCGUCACCUUCAAGGAUGAGAAGUCGAUGAAGGACGCCAUCGAGGGGAUGAACGGACAGGAUCUCGACGGUCGCAGCAUCACUGUUAACGAGGCUCAGUCUCGUGGAAGCGGUGGUGGCGGAGGAGGCCGCGGCGGAGGCGGUGGUGGAUACCGCAGCGGAGGCGGUGGUGGUUACGGAGGAGGCGGUGGUGGAUACGGUGGAGGUGGUGGAAGACGCGAGGGUGGUUACAGUGGUGGCGGUGGAGGUGGUUACUCGUCGAGAGGAGGUGGUGGCGGUGGAGGUUACGGUGGCAGGCGUGAUGGUGGUGAAGGUGGAGGUUACGGAGGAAGCGGUGGUGGUGGUUGGUAAUUAGAUUUUAGAGUUUGAGGUUGUUGUUGUGUCUGUUCCGUUUCUGGGUUCGGGUUUAUGUUUCUAUCUCUAUGUGUUAUGUUUGGUUCUUGCUGUUUUGGUUGUAACAGUUCGUGGUUAGGUAUCUGAUAUCUGGAAACGCAAUGUUAAAUCACUUUUUCAUUAUCUUGCCGUGUUUUAUUUUUUAAGUUUAACAAAU [BnGRP7] | no binding |  |
